Experimental data from patent US7339023B2, “Partial peptide mimetics and methods” (Regents of the University of Minnesota, priority 2002, dated 2008).
Some results were stated once for a whole list of compounds, not compound by compound. Part of at least one peptide drawing is inferred or uncertain, most often the ends.

Tested on: MA148 human ovarian carcinoma
Experiment: MA148 xenograft ovarian carcinoma tumor model in athymic mice, tumor volume
Conditions: intervention: treatment initiated seven days after inoculation, 10 mg/kg/day, 28 days

| Substance | Inhibition of tumor growth during the course of treatment |
| --- | --- |
| ANIKLSVQMKL-[DBF]-IIVKLND [11DBF7] | up to 70% |
| SVQMKL-[DBF]-IIVKLND [6DBF7] | up to 70% |
